The target of the assay is T1, Sirtuin 2 (SIRT2), endogenous in RAW 264.7 cell macrophages (mouse (endogenous in RAW 264.7)) (UniProt Q8VDQ8).
T1 sequence: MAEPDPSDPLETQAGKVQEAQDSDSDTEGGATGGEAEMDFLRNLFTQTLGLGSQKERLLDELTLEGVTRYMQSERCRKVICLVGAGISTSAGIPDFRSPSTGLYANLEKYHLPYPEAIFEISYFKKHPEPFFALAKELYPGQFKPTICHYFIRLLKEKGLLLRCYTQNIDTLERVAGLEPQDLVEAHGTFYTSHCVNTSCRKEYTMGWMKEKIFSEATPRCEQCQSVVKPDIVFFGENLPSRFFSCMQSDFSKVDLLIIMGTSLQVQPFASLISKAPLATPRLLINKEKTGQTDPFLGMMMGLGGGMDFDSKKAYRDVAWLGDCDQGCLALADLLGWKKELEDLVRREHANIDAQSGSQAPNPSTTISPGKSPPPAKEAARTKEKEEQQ
Kind of assay: co-IP; RAW 264.7 cell macrophages ± LPS (100 ng/mL, 4 h); whole-cell lysate; IP with anti-SIRT2 antibody, immunoblot of PFKP and SIRT2; isotype IgG control as negative control. Background: Immunoblotting shows a protein as a band on a membrane.

No constants are given. Whether binding was seen depends on the method and setting. Binding seen in cells or lysates may run through a third protein. Some binding calls cover weakened binding; strength is not graded here.

B1: Phosphofructokinase-platelet isoform (PFKP), endogenous in RAW 264.7 cell macrophages (enzyme, UniProt Q9WUA3 1-784)
chain: MSDLDSSSSSAYPKYLEHLSGDGKAIGVLTSGGDAQGMNAAVRAVVRMGIYTGAKVYFIYEGYQGLVDGGSNIVEAKWDCVSSILQVGGTIIGSARCKAFRSREGRLKAACNLARLGITNLCVIGGDGSLTGANLFRKEWSGLLEELARNGDIDNDTVQKYSYLNVVGMVGSIDNDFCGTDMTIGTDSALHRIIEVVDAIMTTAQSHQRTFVLEVMGRHCGYLALVSALTCGADWVFLPESPPEEDWEENMCLKLSENRARKKRLNIIIVSEGAIDMQNKPITSEKIKELVVKNLGFDTRVTILGHVQRGGTPSAFDRILASRMGVEAVIALLEATPETPACVVSLRGNQAVRLPLMECVQMTQDVQKAMDERRFKEAVKLRGRRFEGNLNTYKRLAIKLPDEKIVKSNCNVAVINVGAPAAGMNAAVRSAVRVGIADGHKMFAIYDGFEGFANGQIKEIGWADVGGWTGQGGSILGTKRTLPGKYLEKIAEQMHSHSINALLIIGGFEAYLGLLELAAAREKHEAFCVPMVMVPATVSNNVPGSDFSIGADTALNTITDTCDRIKQSASGTKRRVFIIETMGGYCGYLANMGALAAGADAAYIFEEPFDIGDLQSNVVHLTEKMKTSIQRGLVLRNESCSVNYTTDFIYQLYSEEGKGVFDCRKNVLGHMQQGGAPSPFDRNFGTKISAKAMEWISAKLKGSQGTGKKFVSDDSICVLGICKRDLLFQPVAELKKVTDFEHRIPKEQWWLKLRPIMKILAKYEASYDMSDSGKLESLQHHEEL
With B1, the binding result was “binds”.

Values taken from PMC9972587, “SIRT2-PFKP interaction dysregulates phagocytosis in macrophages with acute ethanol-exposure” (Frontiers in Immunology, 2022).
